Part of at least one peptide drawing is inferred or uncertain, most often the ends. Where no end group is shown, it is not given here.
What was measured:
Assay type in all cases: cell-based
[1] = system: Staphylococcus aureus subsp. aureus ATCC 6538P; assay: Minimum inhibitory concentration (M.I.C.), liquid medium; details: BHI medium, 30° C. for 20 hours
Protocol: (§1) In order to examine the antibacterial activity of the moricin obtained in Example 1 against various bacteria, the mimimum inhibitory concentration (M.I.C.) of moricin was measured based on the method described in Eur. J. Biochem., 187:381-386 (1990).
(§2) When E. coli and Staphylococcus aureus subsp. aureus were used as test bacteria, brain heart infusion medium (BHI medium, Difco) was used. When Bacillus cereus was used as a test bacterium, nutrient broth medium (NB medium, Difco) was used.
(§3) To a test medium suspending a test bacterium at a concentration of 4×10^4 cells/ml, an equal volume of the same medium containing moricin at varied concentrations was added and incubated at 30° C. for 20 hours. After the incubation, an equal volume of 6% formalin was added thereto to give a two-fold dilution. Then, the degree of cell proliferation was examined by measuring the absorbance at 650 nm. As a control, cecropin B1 [Comp. Biochem. Physiol. 95B:551 (1990)] was used which is a known antibacterial peptide derived from silkworm.

Escherichia coli JM109 [2] = assay: as above; details: BHI medium, 30° C. for 20 hours
Protocol: as §1, §2, §3

Bacillus cereus IF03457 [3] = assay: as above; details: NB medium, 30° C. for 20 hours
Protocol: as §1, §2, §3

[4] = system: Bacillus megaterium IAM1030; assay: Growth inhibition zone on agarose plate (Test Example 2); details: 2 μl of 50 μM solution per well, NB plate, no sodium chloride, 2.0 mm = no zone
Protocol: (§4) The antibacterial activity of the moricin obtained in Example 1 against various bacteria was examined based on the method described in Nature, 292:246 (1981).
(§5) NB plate medium containing 0.8% agarose (optionally, sodium chloride was added thereto to give a concentration of 150 mM) was used.
(§6) 50 μM moricin solution was prepared. 2 μl of this solution was added to each well of a plate medium into which a test bacterium had been inoculated. The plate was incubated at 30° C. overnight and then diameters of the growth inhibition zones formed were measured. As a control, cecropin B1 was used. Incidentally, the diameter of the well was 2.0 mm.

[5] = system: Pseudomonas fluorescens IAM1179; assay: as above; details: 2 μl of 50 μM solution per well, NB plate, no sodium chloride, 2.0 mm = no zone
Protocol: as §4, §5, §6

[6] = system: Pseudomonas aeruginosa IAM1514; assay: as above; details: 2 μl of 50 μM solution per well, NB plate, no sodium chloride, 2.0 mm = no zone
Protocol: as §4, §5, §6

[7] = system: Staphylococcus aureus ATCC6538P; assay: as above; details: 2 μl of 50 μM solution per well, 2.0 mm = no zone
Protocol: as §4, §5, §6

[8] = system: Staphylococcus xylosus IAM1312; assay: as above; details: 2 μl of 50 μM solution per well, NB plate, no sodium chloride, 2.0 mm = no zone
Protocol: as §4, §5, §6

[9] = system: Staphylococcus aureus IF03083; assay: as above; details: 2 μl of 50 μM solution per well, NB plate, no sodium chloride, 2.0 mm = no zone
Protocol: as §4, §5, §6

[10] = system: Staphylococcus epidermidis IF012993; assay: as above; details: 2 μl of 50 μM solution per well, NB plate, no sodium chloride, 2.0 mm = no zone
Protocol: as §4, §5, §6

Escherichia coli JM109 [11] = assay: as above; details: 2 μl of 50 μM solution per well, NB plate, no sodium chloride, well 2.0 mm, 2.0 mm = no zone
Protocol: as §4, §5, §6

Bacillus cereus IF03457 [12] = assay: as above; details: 2 μl of 50 μM solution per well, NB plate, no sodium chloride, 2.0 mm = no zone
Protocol: as §4, §5, §6

[13] = system: Bacillus subtilis IAM1107; assay: as above; details: 2 μl of 50 μM solution per well, NB plate, no sodium chloride, 2.0 mm = no zone
Protocol: as §4, §5, §6

[14] = system: Streptococcus pyogenes ATCC21547; assay: as above; details: 2 μl of 50 μM solution per well, BHI plate, no sodium chloride, 2.0 mm = no zone
Protocol: as §4
When Streptococcus pyogenes was used as a test bacterium, 0.8% agarose-containing BHI plate medium was used.
as §6

AKIPIKAIKTVGKAVGKGLRAINIASTANDVFNFLKPKKRKH [Moricin]
M.I.C. [1]: 2 µg/mL | M.I.C. (Escherichia coli JM109 [2]): 8 µg/mL | M.I.C. (Bacillus cereus IF03457 [3]): 8 µg/mL | Diameter of the Inhibition Zone [4]: 11.3 mm | Diameter of the Inhibition Zone [5]: 8.6 mm | Diameter of the Inhibition Zone [6]: 7.0 mm | Diameter of the Inhibition Zone ([7]; NB plate with 150 mM sodium chloride): 11.8 mm | Diameter of the Inhibition Zone ([7]; NB plate, no sodium chloride): 10.0 mm | Diameter of the Inhibition Zone [8]: 9.6 mm | Diameter of the Inhibition Zone [9]: 9.0 mm | Diameter of the Inhibition Zone [10]: 10.7 mm | Diameter of the Inhibition Zone (Escherichia coli JM109 [11]): 8.7 mm | Diameter of the Inhibition Zone (Bacillus cereus IF03457 [12]): 8.0 mm | Diameter of the Inhibition Zone [13]: 9.7 mm | Diameter of the Inhibition Zone [14]: 11.0 mm

From patent publication US5646014A, “Peptide, antibacterial agent, peptide gene, recombinant DNA and method for preparing the peptide” (Agriculture, Forestry and Fisheries Technical Information …, priority 1994, dated 1997)
